From US20170002083A1
Results are given in words; binding and its absence hold for the method and conditions named. Some binding calls cover weakened binding; strength is not graded here.

Amino acid sequences for entries named in this document (tags omitted). A change or cut given only in a name is not applied to a line headed by its entry.
UniProt P23510: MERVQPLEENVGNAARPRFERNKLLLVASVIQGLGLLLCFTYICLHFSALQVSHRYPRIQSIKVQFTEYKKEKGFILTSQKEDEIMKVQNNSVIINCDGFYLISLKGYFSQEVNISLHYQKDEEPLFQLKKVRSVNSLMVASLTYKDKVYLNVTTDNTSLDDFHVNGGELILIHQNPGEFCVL

B1: 2D10 (hybridoma) (antibody, V domains shown)
VH: EVQLVESGGGLVQPGGSLRLSCAASGFTFSNYAMNWVRQAPGKGLEWVSTISGSGGATRYADSVKGRFTISRDNSRNTVYLQMNSLRVEDTAVFYCTKDRLIMATVRGPYYYGMDVWGQGTTVTVSS
VL: DIQMTQSPSSLSASVGDRVTITCRASQSISSYLNWYQQKPGKAPNLLIYAASSLQSGVPSRFSGSGSETDFTLTISSLQPEDFATYYCQQSHSVSFTFGPGTKVDIK
B2: 9H04 (hybridoma) (antibody, V domains shown)
VH: QVQLVESGGGLVKPGGSLRLSCAASRFTLSDYYMTWIRQAPGKGLEWVSYISSSGNTIYYADSVKGRFTISRDNAKNSLYLQMNSLRAEDTAVYYCARDLSGSYWDYYYGMDVWGQGTTVTVSS
VL: AIQLTQSPSSLSTSVGDRVTIACRASQGINNALAWYQQKPGKAPKLLIYDASSLESGVPSRFSGSGSGTDFTLTISSLQPEDFATYYCQQFNSYPRTFGQGTKVEIK
B3: 10A07 (hybridoma) (antibody, V domains shown)
VH: EVQLVESGGVLVQPGGSLRLSCAASGFTFSSYIMTWVRQAPGKGLEWVSGISGSGGGTYYADSMKGRFTISRDNSKNTLYLQMNSLRVEDTAVYYCAKDRLGPITLVRGGYYYGMDVWGQGTTVTVSS
VL: DIQMTQSPSSLSASVGDRVTITCRASQSISDYLNWYQQKPGKAPKFLIYAASSLQSGVPSRFSGSGSGTDFTLTVSSLQPEDFATYYCQQSYSTPRTFGQGTRVEIK

Biological target: Cell Expressed OX40L (CHO/MEF) (human) (UniProt P23510)
Assay: flow cytometry on CHO-S cells expressing hOX40L (column FACS Binding)

| Binder | binding |
| --- | --- |
| B1 | binds |
| B2 | binds |
| B3 | binds |
